{"source": "the supplement of paper PMC8728848", "binders": {"B1": {"name": "Epa11 (Candida glabrata) (protein)", "chain": "MGSSHHHHHHSSGLVPRGSHMASSNAPNYPVGCSPSVGTQLTPGLSLEVYAYPMDGNNGYCWNATYKDPEFPRSGYLKNKLLGKADGVVGPLNFLAKNKDCSPKVDTLPAGFNFPQPITVTNFTMVLFGYLAPKQSGKYTFKLLADDLLLLNLGATNAFDCCNREATKNNLGEFLAYNLWPNQDKNVTVYLEKGVYYPLRLFFNNRDGGSQLDFSYYFNDSPAPLTDFSGMFFSVPDGAECPARI"}}, "assay_in_all_cases": "glycan array binding signal (z-score within array); higher = stronger binding", "conditions_in_all_cases": "glycan notation: IUPAC condensed, linker removed", "key": {"[1]": {"biological_target": "Neu5Ac(a2-6)Gal(b1-4)GlcNAc(b1-2)Man(a1-3)[Man(a1-6)]Man(b1-4)GlcNAc(b1-4)GlcNAc", "summary_of_the_method": "(§1)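 Glycan array data were curated from 3228 arrays in the Consortium for Functional Glycomics database and kept only where the protein sequence was available. Glycan names were converted to IUPAC-condensed notation, and columns mapping to the same glycan were averaged. The binding signal is a within-array Z-score, averaged across arrays of the same protein sequence at different concentrations or buffers and across linkers. Negative Z-scores can be read as non-binding.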"}, "[2]": {"biological_target": "Neu5Ac(a2-6)Gal(b1-4)GlcNAc(b1-2)Man(a1-3)[Neu5Ac(a2-3)Gal(b1-4)GlcNAc(b1-2)Man(a1-6)]Man(b1-4)GlcNAc(b1-4)GlcNAc", "summary_of_the_method": "as §1"}, "[3]": {"biological_target": "Neu5Ac(a2-6)Gal(b1-4)GlcNAc(b1-2)Man(a1-3)[Neu5Ac(a2-6)Gal(b1-4)GlcNAc(b1-2)Man(a1-6)]Man(b1-4)GlcNAc(b1-4)GlcNAc", "summary_of_the_method": "as §1"}, "[4]": {"biological_target": "Neu5Ac(a2-6)Gal(b1-4)GlcNAc(b1-2)Man(a1-3)[Neu5Ac(a2-6)Gal(b1-4)GlcNAc(b1-2)Man(a1-6)]Man(b1-4)GlcNAc(b1-4)[Fuc(a1-6)]GlcNAc", "summary_of_the_method": "as §1"}, "[5]": {"biological_target": "Neu5Ac(a2-6)Gal(b1-4)GlcNAc(b1-2)Man(a1-6)Man(b1-4)GlcNAc(b1-4)GlcNAc", "summary_of_the_method": "as §1"}, "[6]": {"biological_target": "Neu5Ac(a2-6)Gal(b1-4)GlcNAc(b1-2)Man(a1-6)[Gal(b1-4)GlcNAc(b1-2)Man(a1-3)]Man(b1-4)GlcNAc(b1-4)GlcNAc", "summary_of_the_method": "as §1"}, "[7]": {"biological_target": "Neu5Ac(a2-6)Gal(b1-4)GlcNAc(b1-2)Man(a1-6)[GlcNAc(b1-2)Man(a1-3)]Man(b1-4)GlcNAc(b1-4)GlcNAc", "summary_of_the_method": "as §1"}, "[8]": {"biological_target": "Neu5Ac(a2-6)Gal(b1-4)GlcNAc(b1-2)Man(a1-6)[Man(a1-3)]Man(b1-4)GlcNAc(b1-4)GlcNAc", "summary_of_the_method": "as §1"}, "[9]": {"biological_target": "Neu5Ac(a2-6)Gal(b1-4)GlcNAc(b1-2)[Neu5Ac(a2-6)Gal(b1-4)GlcNAc(b1-4)]Man(a1-3)[GlcNAc(b1-4)][Neu5Ac(a2-6)Gal(b1-4)GlcNAc(b1-2)[Neu5Ac(a2-6)Gal(b1-4)GlcNAc(b1-6)]Man(a1-6)]Man(b1-4)GlcNAc(b1-4)GlcNAc", "summary_of_the_method": "as §1"}, "[10]": {"biological_target": "Neu5Ac(a2-6)Gal(b1-4)GlcNAc(b1-2)[Neu5Ac(a2-6)Gal(b1-4)GlcNAc(b1-4)]Man(a1-3)[GlcNAc(b1-4)][Neu5Ac(a2-6)Gal(b1-4)GlcNAc(b1-4)Man(a1-6)]Man(b1-4)GlcNAc(b1-4)GlcNAc", "summary_of_the_method": "as §1"}, "[11]": {"biological_target": "Neu5Ac(a2-6)Gal(b1-4)GlcNAc(b1-2)[Neu5Ac(a2-6)Gal(b1-4)GlcNAc(b1-6)]Man(a1-6)[Neu5Ac(a2-6)Gal(b1-4)GlcNAc(b1-2)Man(a1-3)][GlcNAc(b1-4)]Man(b1-4)GlcNAc(b1-4)GlcNAc", "summary_of_the_method": "as §1"}, "[12]": {"biological_target": "Neu5Ac(a2-6)Gal(b1-4)GlcNAc(b1-3)Gal(b1-3)GlcNAc", "summary_of_the_method": "as §1"}, "[13]": {"biological_target": "Neu5Ac(a2-6)Gal(b1-4)GlcNAc(b1-3)Gal(b1-4)GlcNAc", "summary_of_the_method": "as §1"}, "[14]": {"biological_target": "Neu5Ac(a2-6)Gal(b1-4)GlcNAc(b1-3)Gal(b1-4)GlcNAc(b1-2)Man(a1-3)[Neu5Ac(a2-6)Gal(b1-4)GlcNAc(b1-3)Gal(b1-4)GlcNAc(b1-2)Man(a1-6)]GalNAc", "summary_of_the_method": "as §1"}, "[15]": {"biological_target": "Neu5Ac(a2-6)Gal(b1-4)GlcNAc(b1-3)Gal(b1-4)GlcNAc(b1-3)Gal(b1-4)GlcNAc", "summary_of_the_method": "as §1"}, "[16]": {"biological_target": "Neu5Ac(a2-6)Gal(b1-4)GlcNAc(b1-3)Gal(b1-4)GlcNAc(b1-3)Gal(b1-4)GlcNAc(b1-2)Man(a1-3)[Neu5Ac(a2-6)Gal(b1-4)GlcNAc(b1-3)Gal(b1-4)GlcNAc(b1-3)Gal(b1-4)GlcNAc(b1-2)Man(a1-6)]GalNAc", "summary_of_the_method": "as §1"}, "[17]": {"biological_target": "Neu5Ac(a2-6)Gal(b1-4)GlcNAc(b1-3)Gal(b1-4)GlcNAc(b1-3)GalNAc", "summary_of_the_method": "as §1"}, "[18]": {"biological_target": "Neu5Ac(a2-6)Gal(b1-4)GlcNAc(b1-3)Gal(b1-4)GlcNAc(b1-3)[Neu5Ac(a2-6)Gal(b1-4)GlcNAc(b1-3)Gal(b1-4)GlcNAc(b1-6)]GalNAc", "summary_of_the_method": "as §1"}, "[19]": {"biological_target": "Neu5Ac(a2-6)Gal(b1-4)GlcNAc(b1-3)Gal(b1-4)GlcNAc(b1-6)[Gal(b1-3)]GalNAc", "summary_of_the_method": "as §1"}, "[20]": {"biological_target": "Neu5Ac(a2-6)Gal(b1-4)GlcNAc(b1-3)Gal(b1-4)[Fuc(a1-3)]GlcNAc(b1-3)Gal(b1-4)[Fuc(a1-3)]GlcNAc", "summary_of_the_method": "as §1"}, "[21]": {"biological_target": "Neu5Ac(a2-6)Gal(b1-4)GlcNAc(b1-3)GalNAc", "summary_of_the_method": "as §1"}, "[22]": {"biological_target": "Neu5Ac(a2-6)Gal(b1-4)GlcNAc(b1-3)[Neu5Ac(a2-6)Gal(b1-4)GlcNAc(b1-6)]GalNAc", "summary_of_the_method": "as §1"}, "[23]": {"biological_target": "Neu5Ac(a2-6)Gal(b1-4)GlcNAc(b1-6)GalNAc", "summary_of_the_method": "as §1"}, "[24]": {"biological_target": "Neu5Ac(a2-6)Gal(b1-4)GlcNAc(b1-6)[Gal(b1-3)GlcNAc(b1-3)]Gal(b1-4)Glc", "summary_of_the_method": "as §1"}, "[25]": {"biological_target": "Neu5Ac(a2-6)Gal(b1-4)GlcNAc(b1-6)[Gal(b1-3)]GalNAc", "summary_of_the_method": "as §1"}, "[26]": {"biological_target": "Neu5Ac(a2-6)Gal(b1-4)GlcNAc6S", "summary_of_the_method": "as §1"}, "[27]": {"biological_target": "Neu5Ac(a2-6)GalNAc", "summary_of_the_method": "as §1"}, "[28]": {"biological_target": "Neu5Ac(a2-6)GalNAc(b1-4)GlcNAc", "summary_of_the_method": "as §1"}, "[29]": {"biological_target": "Neu5Ac(a2-6)GalNAc(b1-4)GlcNAc6S", "summary_of_the_method": "as §1"}, "[30]": {"biological_target": "Neu5Ac(a2-6)GlcNAc(b1-4)GlcNAc", "summary_of_the_method": "as §1"}, "[31]": {"biological_target": "Neu5Ac(a2-6)GlcNAc(b1-4)GlcNAc(b1-4)GlcNAc", "summary_of_the_method": "as §1"}}, "note": "Some of the results follow."}
{"binder": "B1", "values": [{"measurement": "glycan array binding signal (z-score)", "setting": "[1]", "result": 0.506}, {"measurement": "glycan array binding signal (z-score)", "setting": "[2]", "result": 0.456}, {"measurement": "glycan array binding signal (z-score)", "setting": "[3]", "result": -0.433}, {"measurement": "glycan array binding signal (z-score)", "setting": "[4]", "result": 0.607}, {"measurement": "glycan array binding signal (z-score)", "setting": "[5]", "result": 0.488}, {"measurement": "glycan array binding signal (z-score)", "setting": "[6]", "result": -0.813}, {"measurement": "glycan array binding signal (z-score)", "setting": "[7]", "result": -0.098}, {"measurement": "glycan array binding signal (z-score)", "setting": "[8]", "result": 0.212}, {"measurement": "glycan array binding signal (z-score)", "setting": "[9]", "result": 0.252}, {"measurement": "glycan array binding signal (z-score)", "setting": "[10]", "result": -0.193}, {"measurement": "glycan array binding signal (z-score)", "setting": "[11]", "result": -1.11}, {"measurement": "glycan array binding signal (z-score)", "setting": "[12]", "result": -0.149}, {"measurement": "glycan array binding signal (z-score)", "setting": "[13]", "result": -0.608}, {"measurement": "glycan array binding signal (z-score)", "setting": "[14]", "result": 0.871}, {"measurement": "glycan array binding signal (z-score)", "setting": "[15]", "result": -0.284}, {"measurement": "glycan array binding signal (z-score)", "setting": "[16]", "result": 1.56}, {"measurement": "glycan array binding signal (z-score)", "setting": "[17]", "result": 0.59}, {"measurement": "glycan array binding signal (z-score)", "setting": "[18]", "result": 1.16}, {"measurement": "glycan array binding signal (z-score)", "setting": "[19]", "result": 0.182}, {"measurement": "glycan array binding signal (z-score)", "setting": "[20]", "result": -0.397}, {"measurement": "glycan array binding signal (z-score)", "setting": "[21]", "result": 0.37}, {"measurement": "glycan array binding signal (z-score)", "setting": "[22]", "result": -0.465}, {"measurement": "glycan array binding signal (z-score)", "setting": "[23]", "result": 0.037}, {"measurement": "glycan array binding signal (z-score)", "setting": "[24]", "result": -0.348}, {"measurement": "glycan array binding signal (z-score)", "setting": "[25]", "result": -0.384}, {"measurement": "glycan array binding signal (z-score)", "setting": "[26]", "result": -0.281}, {"measurement": "glycan array binding signal (z-score)", "setting": "[27]", "result": -0.369}, {"measurement": "glycan array binding signal (z-score)", "setting": "[28]", "result": -0.616}, {"measurement": "glycan array binding signal (z-score)", "setting": "[29]", "result": -0.391}, {"measurement": "glycan array binding signal (z-score)", "setting": "[30]", "result": 0.216}, {"measurement": "glycan array binding signal (z-score)", "setting": "[31]", "result": -0.053}]}
